The other results are listed elsewhere or left out. Small differences around the control level are noise.
Compound: CN[C@@H]1C[C@H]2O[C@@](C)([C@@H]1OC)n1c3ccccc3c3c4c(c5c6ccccc6n2c5c31)C(=O)NC4 [staurosporine]
Assay: log2 fold change of pooled soluble protein (PISA), ligand vs vehicle (log2 ratio); higher = more thermally stabilized
Conditions: ligand concentration: 20 uM; assay format: PISA pool 52.9/55.5/58.6 C

Protein sequences, listed by entry. Tags and fused reporters are not part of them. Lines headed by an entry give the natural chain unless they say otherwise; changes in a name come on top.
UniProt E9Q3C1: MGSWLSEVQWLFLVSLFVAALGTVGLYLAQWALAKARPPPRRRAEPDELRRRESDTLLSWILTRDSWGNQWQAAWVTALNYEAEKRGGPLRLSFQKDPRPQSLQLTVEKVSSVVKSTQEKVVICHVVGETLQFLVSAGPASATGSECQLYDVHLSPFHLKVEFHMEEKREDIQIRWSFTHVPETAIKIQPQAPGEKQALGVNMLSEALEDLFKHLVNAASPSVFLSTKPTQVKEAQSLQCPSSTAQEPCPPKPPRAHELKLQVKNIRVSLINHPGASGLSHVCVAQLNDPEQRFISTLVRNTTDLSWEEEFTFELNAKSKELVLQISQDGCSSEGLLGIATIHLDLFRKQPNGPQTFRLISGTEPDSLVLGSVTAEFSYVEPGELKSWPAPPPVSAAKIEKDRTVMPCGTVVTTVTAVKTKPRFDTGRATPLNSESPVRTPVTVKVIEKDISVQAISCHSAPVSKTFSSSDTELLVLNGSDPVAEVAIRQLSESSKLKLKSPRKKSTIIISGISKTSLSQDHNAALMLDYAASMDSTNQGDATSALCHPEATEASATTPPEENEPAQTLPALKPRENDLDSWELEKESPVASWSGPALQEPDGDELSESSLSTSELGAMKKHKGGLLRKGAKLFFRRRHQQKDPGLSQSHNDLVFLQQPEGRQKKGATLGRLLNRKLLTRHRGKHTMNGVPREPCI
UniProt A2AS89: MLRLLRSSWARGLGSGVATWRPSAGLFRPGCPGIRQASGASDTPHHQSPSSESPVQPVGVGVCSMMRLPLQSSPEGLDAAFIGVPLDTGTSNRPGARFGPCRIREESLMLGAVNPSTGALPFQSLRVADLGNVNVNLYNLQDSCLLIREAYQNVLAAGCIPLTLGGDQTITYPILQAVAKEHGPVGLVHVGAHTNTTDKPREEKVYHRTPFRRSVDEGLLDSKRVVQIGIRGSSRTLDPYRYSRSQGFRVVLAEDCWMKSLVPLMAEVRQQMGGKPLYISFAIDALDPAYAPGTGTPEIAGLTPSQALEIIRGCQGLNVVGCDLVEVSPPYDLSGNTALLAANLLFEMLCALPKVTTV
UniProt A2APT9: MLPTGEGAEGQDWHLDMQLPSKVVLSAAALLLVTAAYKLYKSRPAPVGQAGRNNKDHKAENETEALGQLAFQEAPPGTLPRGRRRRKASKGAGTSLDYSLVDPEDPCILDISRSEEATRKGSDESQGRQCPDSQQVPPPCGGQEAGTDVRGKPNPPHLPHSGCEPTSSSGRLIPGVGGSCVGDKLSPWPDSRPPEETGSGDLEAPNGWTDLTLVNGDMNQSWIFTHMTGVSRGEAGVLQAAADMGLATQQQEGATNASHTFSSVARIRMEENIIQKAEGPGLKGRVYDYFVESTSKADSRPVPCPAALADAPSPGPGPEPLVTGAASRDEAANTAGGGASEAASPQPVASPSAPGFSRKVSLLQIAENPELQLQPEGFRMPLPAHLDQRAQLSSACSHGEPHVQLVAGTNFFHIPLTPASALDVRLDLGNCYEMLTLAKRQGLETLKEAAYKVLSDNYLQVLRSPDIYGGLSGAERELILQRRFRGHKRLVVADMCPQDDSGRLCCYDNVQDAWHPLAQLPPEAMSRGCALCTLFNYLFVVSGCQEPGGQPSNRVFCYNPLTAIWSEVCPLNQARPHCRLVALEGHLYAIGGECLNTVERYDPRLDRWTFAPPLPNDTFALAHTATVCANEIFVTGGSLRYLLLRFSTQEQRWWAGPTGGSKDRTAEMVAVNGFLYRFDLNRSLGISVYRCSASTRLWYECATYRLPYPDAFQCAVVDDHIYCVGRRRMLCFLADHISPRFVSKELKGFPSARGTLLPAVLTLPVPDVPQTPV
UniProt A6H8H2: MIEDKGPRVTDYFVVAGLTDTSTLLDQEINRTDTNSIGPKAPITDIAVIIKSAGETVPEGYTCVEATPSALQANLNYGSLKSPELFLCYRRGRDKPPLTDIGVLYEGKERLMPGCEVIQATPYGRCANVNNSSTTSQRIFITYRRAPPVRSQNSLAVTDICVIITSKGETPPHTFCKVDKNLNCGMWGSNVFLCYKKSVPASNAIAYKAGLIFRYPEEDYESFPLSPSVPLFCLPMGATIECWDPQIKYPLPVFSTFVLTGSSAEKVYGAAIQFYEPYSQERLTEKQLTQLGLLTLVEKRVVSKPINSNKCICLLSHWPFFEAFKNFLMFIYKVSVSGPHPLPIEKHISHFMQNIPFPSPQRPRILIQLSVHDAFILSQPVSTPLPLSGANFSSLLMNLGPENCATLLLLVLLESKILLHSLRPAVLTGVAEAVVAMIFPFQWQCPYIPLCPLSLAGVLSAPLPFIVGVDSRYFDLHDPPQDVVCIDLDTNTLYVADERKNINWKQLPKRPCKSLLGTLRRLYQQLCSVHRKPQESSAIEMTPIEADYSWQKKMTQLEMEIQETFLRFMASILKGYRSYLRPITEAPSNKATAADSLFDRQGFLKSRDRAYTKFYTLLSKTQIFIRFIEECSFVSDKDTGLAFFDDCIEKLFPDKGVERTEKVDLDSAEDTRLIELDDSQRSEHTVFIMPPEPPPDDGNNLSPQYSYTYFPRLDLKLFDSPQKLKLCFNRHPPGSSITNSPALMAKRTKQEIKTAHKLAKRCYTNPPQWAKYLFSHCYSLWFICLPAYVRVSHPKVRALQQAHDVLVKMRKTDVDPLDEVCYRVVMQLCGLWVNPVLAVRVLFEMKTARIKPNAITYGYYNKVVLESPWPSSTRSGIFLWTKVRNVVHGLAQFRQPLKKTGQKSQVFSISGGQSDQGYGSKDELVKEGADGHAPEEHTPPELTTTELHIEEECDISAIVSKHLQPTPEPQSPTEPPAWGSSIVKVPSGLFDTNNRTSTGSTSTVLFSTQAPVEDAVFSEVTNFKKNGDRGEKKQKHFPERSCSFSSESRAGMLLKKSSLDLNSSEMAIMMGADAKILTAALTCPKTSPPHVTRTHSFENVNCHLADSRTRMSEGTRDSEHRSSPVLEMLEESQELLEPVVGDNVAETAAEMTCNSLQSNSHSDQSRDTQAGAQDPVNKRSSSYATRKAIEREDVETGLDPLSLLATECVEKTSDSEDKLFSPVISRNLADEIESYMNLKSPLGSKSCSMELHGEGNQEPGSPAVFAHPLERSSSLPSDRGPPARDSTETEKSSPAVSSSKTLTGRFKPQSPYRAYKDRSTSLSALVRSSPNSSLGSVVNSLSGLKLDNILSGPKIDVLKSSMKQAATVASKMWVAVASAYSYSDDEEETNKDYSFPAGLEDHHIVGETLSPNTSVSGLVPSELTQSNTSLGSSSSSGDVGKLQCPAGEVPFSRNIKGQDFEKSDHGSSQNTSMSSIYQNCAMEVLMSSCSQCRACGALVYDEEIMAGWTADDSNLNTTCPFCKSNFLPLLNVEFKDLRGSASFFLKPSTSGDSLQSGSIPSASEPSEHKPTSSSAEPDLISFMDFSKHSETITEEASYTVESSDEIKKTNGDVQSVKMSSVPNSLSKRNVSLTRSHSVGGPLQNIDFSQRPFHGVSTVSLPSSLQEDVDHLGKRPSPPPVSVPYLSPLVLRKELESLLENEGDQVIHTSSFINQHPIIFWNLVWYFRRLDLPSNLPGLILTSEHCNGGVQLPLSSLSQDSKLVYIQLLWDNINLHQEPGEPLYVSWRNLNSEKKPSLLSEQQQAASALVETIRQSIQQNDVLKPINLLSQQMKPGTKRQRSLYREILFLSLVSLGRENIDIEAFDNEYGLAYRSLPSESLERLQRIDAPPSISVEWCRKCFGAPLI
UniProt A2AGT5: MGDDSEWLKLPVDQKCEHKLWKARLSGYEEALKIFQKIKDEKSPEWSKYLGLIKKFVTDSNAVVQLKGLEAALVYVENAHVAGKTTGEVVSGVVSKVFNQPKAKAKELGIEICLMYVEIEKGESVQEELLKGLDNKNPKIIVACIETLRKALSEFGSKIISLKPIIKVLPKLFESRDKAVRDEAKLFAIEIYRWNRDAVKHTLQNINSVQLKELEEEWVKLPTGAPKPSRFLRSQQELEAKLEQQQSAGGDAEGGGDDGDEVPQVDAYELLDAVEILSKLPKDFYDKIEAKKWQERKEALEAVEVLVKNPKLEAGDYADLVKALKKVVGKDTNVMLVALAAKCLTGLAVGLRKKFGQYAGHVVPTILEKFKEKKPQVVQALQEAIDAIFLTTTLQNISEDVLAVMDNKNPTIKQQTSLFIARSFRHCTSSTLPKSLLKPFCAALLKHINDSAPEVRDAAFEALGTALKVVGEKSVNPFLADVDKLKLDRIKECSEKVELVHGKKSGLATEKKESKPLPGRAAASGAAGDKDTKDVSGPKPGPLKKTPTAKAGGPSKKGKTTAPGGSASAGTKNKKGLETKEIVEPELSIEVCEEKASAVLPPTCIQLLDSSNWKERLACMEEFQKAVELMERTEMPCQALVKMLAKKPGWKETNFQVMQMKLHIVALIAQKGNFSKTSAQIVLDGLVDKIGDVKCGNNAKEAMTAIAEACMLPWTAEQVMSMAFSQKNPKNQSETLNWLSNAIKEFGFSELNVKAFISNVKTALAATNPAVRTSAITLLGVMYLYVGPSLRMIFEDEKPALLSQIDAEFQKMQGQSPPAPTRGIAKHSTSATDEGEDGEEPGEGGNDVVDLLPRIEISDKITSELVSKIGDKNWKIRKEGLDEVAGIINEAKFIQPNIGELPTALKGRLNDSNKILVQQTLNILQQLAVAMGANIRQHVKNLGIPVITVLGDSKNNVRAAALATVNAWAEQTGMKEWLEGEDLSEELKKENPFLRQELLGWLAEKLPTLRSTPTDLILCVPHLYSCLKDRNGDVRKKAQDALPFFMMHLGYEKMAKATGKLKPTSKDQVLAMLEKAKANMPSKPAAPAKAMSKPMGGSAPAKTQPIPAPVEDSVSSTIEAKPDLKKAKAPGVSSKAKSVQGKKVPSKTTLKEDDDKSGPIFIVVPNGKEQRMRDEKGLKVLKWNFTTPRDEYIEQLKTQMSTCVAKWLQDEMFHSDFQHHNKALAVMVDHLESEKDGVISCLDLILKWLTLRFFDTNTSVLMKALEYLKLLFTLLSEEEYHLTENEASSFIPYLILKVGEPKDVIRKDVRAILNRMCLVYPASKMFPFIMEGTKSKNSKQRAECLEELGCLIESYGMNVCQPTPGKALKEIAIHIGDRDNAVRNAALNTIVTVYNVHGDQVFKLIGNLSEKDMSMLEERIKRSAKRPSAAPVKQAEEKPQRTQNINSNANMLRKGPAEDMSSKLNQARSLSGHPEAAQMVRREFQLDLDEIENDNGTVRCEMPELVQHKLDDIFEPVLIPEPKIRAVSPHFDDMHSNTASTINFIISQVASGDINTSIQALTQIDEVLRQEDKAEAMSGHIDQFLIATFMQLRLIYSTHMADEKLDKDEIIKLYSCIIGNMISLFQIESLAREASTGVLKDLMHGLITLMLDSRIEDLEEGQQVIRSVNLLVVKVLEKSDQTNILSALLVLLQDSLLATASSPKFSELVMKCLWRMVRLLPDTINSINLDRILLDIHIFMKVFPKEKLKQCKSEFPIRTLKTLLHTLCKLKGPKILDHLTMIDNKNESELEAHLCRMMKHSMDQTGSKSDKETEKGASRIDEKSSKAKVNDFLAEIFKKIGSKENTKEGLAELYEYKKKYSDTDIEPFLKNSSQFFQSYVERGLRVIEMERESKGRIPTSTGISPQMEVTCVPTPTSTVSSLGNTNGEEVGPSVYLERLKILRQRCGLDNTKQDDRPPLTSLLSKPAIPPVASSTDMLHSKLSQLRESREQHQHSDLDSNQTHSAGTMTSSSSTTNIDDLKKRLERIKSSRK
UniProt A2AJB2: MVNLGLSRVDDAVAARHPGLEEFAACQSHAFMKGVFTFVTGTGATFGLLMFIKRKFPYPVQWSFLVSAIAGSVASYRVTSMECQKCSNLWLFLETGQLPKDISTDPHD
UniProt E9Q1P8: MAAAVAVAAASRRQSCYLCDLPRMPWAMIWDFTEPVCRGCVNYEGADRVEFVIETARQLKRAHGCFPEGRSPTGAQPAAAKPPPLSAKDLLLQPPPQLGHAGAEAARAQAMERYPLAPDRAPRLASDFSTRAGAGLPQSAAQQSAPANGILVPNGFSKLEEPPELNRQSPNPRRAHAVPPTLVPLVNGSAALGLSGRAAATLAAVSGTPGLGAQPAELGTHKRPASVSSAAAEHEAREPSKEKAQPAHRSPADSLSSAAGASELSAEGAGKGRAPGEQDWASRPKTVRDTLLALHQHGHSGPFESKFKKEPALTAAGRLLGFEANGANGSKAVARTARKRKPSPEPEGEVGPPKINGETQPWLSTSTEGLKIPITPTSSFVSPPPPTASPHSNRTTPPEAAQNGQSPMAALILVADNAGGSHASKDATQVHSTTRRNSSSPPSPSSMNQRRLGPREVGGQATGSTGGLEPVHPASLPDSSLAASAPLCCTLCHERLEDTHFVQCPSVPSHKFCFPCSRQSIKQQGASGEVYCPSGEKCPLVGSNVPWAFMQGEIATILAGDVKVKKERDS
UniProt B1ARW8: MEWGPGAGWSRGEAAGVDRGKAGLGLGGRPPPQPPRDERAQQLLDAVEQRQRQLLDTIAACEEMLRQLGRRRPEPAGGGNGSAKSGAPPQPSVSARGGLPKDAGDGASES

Row | Target | log2 fold change of pooled soluble protein
1 | C0HKD8;C0HKD9 | -0.0246
2 | UniProt E9Q3C1 | -0.0436
3 | UniProt A2AS89 | -0.479
4 | UniProt A2AJI0 | 0.0331
5 | UniProt B1AUE5 | 0.0684
6 | UniProt A2A6A1 | -0.157
7 | UniProt A2APT9 | 0.216
8 | UniProt A6H611 | 0.155
9 | UniProt E9Q0S6 | -0.0736
10 | UniProt A6H8H2 | 0.0343
11 | UniProt A2ATU0 | -0.163
12 | UniProt A2AGT5 | -0.313
13 | UniProt E9Q557 | -0.082
14 | UniProt A3KMP2 | 0.0438
15 | UniProt B2RXS4 | -0.0736
16 | UniProt A2AJB2 | -0.0262
17 | UniProt A2AHC3 | 0.0984

Row | Target | log2 fold change of pooled soluble protein
18 | UniProt B2RY56 | 0.196
19 | UniProt D3YZP9 | 0.0739
20 | UniProt E9Q6J5 | -0.0339
21 | UniProt E9PVB5 | -0.149
22 | UniProt B1AXP6 | -0.28
23 | UniProt E9PV24 | -0.0953
24 | UniProt E9Q8G5 | 0.0623
25 | UniProt F8VPQ2 | -0.138
26 | UniProt E9Q1P8 | 0.0726
27 | UniProt B2RQC6 | 0.0445
28 | UniProt E9Q4Z2 | -0.28
29 | UniProt A2AQ25 | 0.103
30 | UniProt E9Q5K4 | -0.0919
31 | UniProt E9Q7G0 | -0.135
32 | UniProt B1ARW8 | -0.332
33 | UniProt B2RX14 | -0.0429

Reprinted at random: two records from the list
Row | Target | log2 fold change of pooled soluble protein
25 | UniProt F8VPQ2 | -0.138
29 | UniProt A2AQ25 | 0.103

Source: the supplement of paper PMC12819154, “High-throughput peptide-centric local stability assay extends protein–ligand identification to membrane proteins, tissues and bacteria” (Nature Structural & Molecular Biology, 2025)
